The text below walks through data of patent US4016259A (Research Corporation, priority 1975, dated 1977).

Series [1] in a line: general procedure: Boc solid-phase peptide synthesis; polystyrene divinyl benzene chloromethyl resin, 2.2 mmoles of chloride per gram; DCC. Conditions: whole synthesis, based on Lys, scale 0.45 mmol, diacetate salt converted to sodium salt.
Series [2] can be described thus: general procedure: Boc solid-phase peptide synthesis; chloromethyl-resin; DCC. The following applies: whole synthesis, scale 0.45 mmol, diacetate salt converted to sodium salt.

As for Thr-Pro-Arg-Lys, the crude yield in series [1] worked out at 78%. Further, the crude mass in series [2] came to 176 mg.
